From US20110230501A1, “PHARMACEUTICAL COMPOSITIONS FOR THE TREATMENT OF DIABETES MELLITUS” (IPCA Laboratories Ltd., priority 2008, published 2011)

Test system: alloxan induced diabetic rats
Assay: Alloxan induced diabetic rats: hydroxychloroquine with metformin
Format: in vivo, Wistar rats
Conditions: HCQ 160 or MET 500 mg/kg/day p.o.
Protocol: Thirty Wistar rats weighing 150-200 g of either sex were divided into six groups consisting of five rats each. Experimental diabetes was induced in rats by injecting alloxan monohydrate intraperitonially at a dose of 90 mg/kg body weight. Rats with blood sugar level of 250-350 mg/dl, were considered as diabetic and employed in the study. Group 1 (normal control) consisted of normal rats that neither received alloxan monohydrate nor any drug. Group 2 served as diabetic control which received vehicle orally. […] The study drugs were administered for nine days.

| Structure (SMILES) | Blood Glucose (mg/dl) Initial | Body Weight (g) Initial |
| --- | --- | --- |
| CN(C)C(=N)N=C(N)N [MET, metformin] | 283.4 ± 23.49 mg/dL | 181.2 ± 10.40 g |
| CCN(CCO)CCCC(C)Nc1ccnc2cc(Cl)ccc12 (stereo not shown) [HCQ, hydroxychloroquine] | 296.00 ± 15.93 mg/dL | 169.2 ± 10.20 g |
